Data taken from the supplement of paper PMC4604168 (melanoma cell lines).
The other results are listed elsewhere or left out. Single values are uncertain, as repeats are few or missing.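 The apoptosis fraction was the count of cleaved-PARP antibody-stained nuclei relative to all DNA-stained nuclei, imaged in 1,536-well plates. Screening doses were set so most cells survived, and baseline and induced cleaved-PARP levels vary greatly across cell lines.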

Key:
Assay in all cases: cleaved PARP positive nuclei fraction relative to DMSO control; melanoma cells; higher = more apoptosis
Conditions in all cases: library dose: low library concentration; 72 h
MZ2-MEL = system: MZ2-MEL
MeWo = system: MeWo
RPMI7951 = system: RPMI7951
RVH-421 = system: RVH-421
SkMel28 = system: SkMel28
SkMel2 = system: SkMel2
SkMel30 = system: SkMel30
SkMel5 = system: SkMel5
UACC257 = system: UACC257
UACC62 = system: UACC62
WM115 = system: WM115
WM1716 = system: WM1716
WM1745 = system: WM1745
WM3526 = system: WM3526
WM3619 = system: WM3619
WM451Lu = system: WM451Lu

SMILES	cleaved PARP positive nuclei fraction (MZ2-MEL) [%]	cleaved PARP positive nuclei fraction (MeWo) [%]	cleaved PARP positive nuclei fraction (RPMI7951) [%]	cleaved PARP positive nuclei fraction (RVH-421) [%]	cleaved PARP positive nuclei fraction (SkMel28) [%]	cleaved PARP positive nuclei fraction (SkMel2) [%]	cleaved PARP positive nuclei fraction (SkMel30) [%]	cleaved PARP positive nuclei fraction (SkMel5) [%]	cleaved PARP positive nuclei fraction (UACC257) [%]	cleaved PARP positive nuclei fraction (UACC62) [%]	cleaved PARP positive nuclei fraction (WM115) [%]	cleaved PARP positive nuclei fraction (WM1716) [%]	cleaved PARP positive nuclei fraction (WM1745) [%]	cleaved PARP positive nuclei fraction (WM3526) [%]	cleaved PARP positive nuclei fraction (WM3619) [%]	cleaved PARP positive nuclei fraction (WM451Lu) [%]
Clc1ccc(Nc2nnc(Cc3ccncc3)c3ccccc23)cc1 [vatalanib] + Oc1nc(-c2ccc(C(F)(F)F)cc2)nc2c1CSCC2 [XAV939] (first compound 2 µM, partner dose 2 µM)	162	61.2	176	55.1	125	118	39.4	69.8	188	43.9	301	198	128	58.3	77.9	330
Cn1nnc2c(C(N)=O)ncn2c1=O [temozolomide] + O=C(CCCCCCC(=O)Nc1ccccc1)NO [vorinostat] (first compound 2 µM, partner dose 0.08 µM)	68.6	64.9	74.6	97.3	41.5	63.1	63.8	176	129	84	59.4	81.8	87.7	154	107	64.3
Cc1nc(Nc2ncc(C(=O)Nc3c(C)cccc3Cl)s2)cc(N2CCN(CCO)CC2)n1 [dasatanib] + Cn1cncc1[C@@](N)(c1ccc(Cl)cc1)c1ccc2c(c1)c(-c1cccc(Cl)c1)cc(=O)n2C [tipifarnib] (first compound 0.004 µM, partner dose 0.01 µM)	121	126	101	141	110	244	218	147	110	225	289	200	125	75.4	116	122
O=C(Nc1cccc(Cl)c1)Nc1ncc(CCNc2ncnc3ccsc23)s1 + COc1cc2c(Oc3ccc4[nH]c(C)cc4c3F)ncnc2cc1OCCCN1CCCC1 [cediranib] (first compound 0.0008 µM, partner dose 0.4 µM)	136	47.2	37.9	320	116	71.8	57.4	76.8	32.4	42	80.5	77.7	86.7	63.6	84.2	158
C=CCNC1=C2C[C@@H](C)C[C@H](OC)[C@H](O)[C@@H](C)/C=C(\C)[C@H](OC(N)=O)[C@@H](OC)/C=C\C=C(/C)C(=O)NC(=CC1=O)C2=O [Tanespimycin] + CCCCCCCCCCCC1=C(O)C(=O)C=C(O)C1=O [Embelin] (first compound 0.002 µM, partner dose 1.2 µM)	78.5	126	187	92.8	153	76.5	1300	77.1	25.6	60.5	75.2	73.2	85.6	198	83.4	1230
Cc1nc(Nc2ncc(C(=O)Nc3c(C)cccc3Cl)s2)cc(N2CCN(CCO)CC2)n1 [dasatanib] + CC(C)(C)c1cnc(CSc2cnc(NC(=O)C3CCNCC3)s2)o1 [SNS-032] (first compound 0.004 µM, partner dose 0.01 µM)	392	111	171	80.6	80.9	158	125	97.9	190	73.2	113	226	245	51.5	92.4	501
Clc1ccc(Nc2nnc(Cc3ccncc3)c3ccccc23)cc1 [vatalanib] + COc1cc2c(Oc3ccc4[nH]c(C)cc4c3F)ncnc2cc1OCCCN1CCCC1 [cediranib] (first compound 2 µM, partner dose 0.4 µM)	229	195	51.9	77.7	41	79.6	56.4	45.6	42.1	100	60.5	169	115	173	122	104
OCc1c[nH]c2ccccc12 [Indole-3-carbinol] + CCc1ccc(CCOc2ccc(CC3SC(=O)NC3=O)cc2)nc1 [pioglitazone] (first compound 0.8 µM, partner dose 2 µM)	64.3	86.2	82.9	56.6	180	73.5	114	85.8	757	116	116	464	90.6	33.6	91.1	91.8
C[C@]1(c2nc3c(C(N)=O)cccc3[nH]2)CCCN1 [Veliparib] + O=C(CCCCCCC(=O)Nc1ccccc1)NO [vorinostat] (first compound 1.4 µM, partner dose 0.08 µM)	153	102	140	31.9	126	146	346	54.6	86.8	69.2	76	142	91.2	62.3	87.3	39.2
Clc1ccc(Nc2nnc(Cc3ccncc3)c3ccccc23)cc1 [vatalanib] + NCC(=O)Nc1ccc(-n2nc(C(F)(F)F)cc2-c2ccc3c(ccc4ccccc43)c2)cc1 [OSU03012] (first compound 2 µM, partner dose 1 µM)	457	122	452	154	31.6	292	143	37.5	136	57	153	175	96.8	106	84.1	175
CC(=O)c1c(C)c2cnc(Nc3ccc(N4CCNCC4)cn3)nc2n(C2CCCC2)c1=O [palbociclib] + CC1(C)NC(=O)N(c2ccc([N+](=O)[O-])c(C(F)(F)F)c2)C1=O [nilutamide] (first compound 0.04 µM, partner dose 1 µM)	34.2	55.5	121	71.9	166	61	89.4	67.8	115	233	191	65.2	168	373	189	223
Cc1cc(N2CCOCC2)cc2[nH]c(-c3c(NC[C@@H](O)c4cccc(Cl)c4)cc[nH]c3=O)nc12 + OCCn1cc(-c2cnc3nnn(Cc4ccc5ncccc5c4)c3n2)cn1 [PF04217903] (first compound 0.2 µM, partner dose 1 µM)	120	259	54.6	165	31.8	107	73	139	87.7	92.4	58.2	67.4	99.9	129	104	290
NC(=O)Nc1cc(-c2cccc(F)c2)sc1C(=O)N[C@H]1CCCNC1 + Cn1cncc1[C@@](N)(c1ccc(Cl)cc1)c1ccc2c(c1)c(-c1cccc(Cl)c1)cc(=O)n2C [tipifarnib] (first compound 0.02 µM, partner dose 0.01 µM)	42.3	197	80.7	59.9	51.8	89.2	74.8	165	79.9	55.1	116	89.1	95	431	231	130
C=CCn1c(=O)c2cnc(Nc3ccc(N4CCN(C)CC4)cc3)nc2n1-c1cccc(C(C)(C)O)n1 + NC(=O)Nc1cc(-c2cccc(F)c2)sc1C(=O)N[C@H]1CCCNC1 [AZD7762] (first compound 0.02 µM, partner dose 0.02 µM)	78.3	176	180	89.8	69.3	137	211	46.6	103	204	324	130	117	134	355	236
CC(=O)c1c(C)c2cnc(Nc3ccc(N4CCNCC4)cn3)nc2n(C2CCCC2)c1=O [palbociclib] + Cc1cc([N+](=O)[O-])ccc1NS(=O)(=O)c1cc(Cl)ccc1Cl [FH535] (first compound 0.04 µM, partner dose 1 µM)	109	61.4	47.2	26.9	124	16.9	128	102	265	94.8	127	278	121	141	123	83.2
OCCn1cc(-c2cnc3nnn(Cc4ccc5ncccc5c4)c3n2)cn1 + C[C@@H]1CCN(C(=O)CC#N)C[C@@H]1N(C)c1ncnc2[nH]ccc12 [CP690550] (first compound 1 µM, partner dose 1 µM)	102	121	35.9	85.5	87.8	168	58.3	113	134	170	58.4	46.5	175	85.9	92.9	63.6
Cc1nc(Nc2ncc(C(=O)Nc3c(C)cccc3Cl)s2)cc(N2CCN(CCO)CC2)n1 [dasatanib] + Cc1ccc(NC(=O)c2cccc(N(C)C)c2)cc1NC(=O)c1ccc(O)cc1 [ZM336372] (first compound 0.004 µM, partner dose 2 µM)	144	72	139	61.3	148	57.4	68.9	45.6	53.5	95.5	47.7	177	126	112	92.4	63
CC(=O)c1c(C)c2cnc(Nc3ccc(N4CCNCC4)cn3)nc2n(C2CCCC2)c1=O [palbociclib] + O=C1NC(=O)/C(=C/c2ccc(-c3ccc(F)cc3O)o2)S1 [AS252424] (first compound 0.04 µM, partner dose 1 µM)	93.9	137	54.1	65.8	112	63.6	131	205	636	247	180	59.7	120	134	177	50.6

Reprinted at random: 2 entries already listed, in no set order.
SMILES	cleaved PARP positive nuclei fraction (MZ2-MEL) [%]	cleaved PARP positive nuclei fraction (MeWo) [%]	cleaved PARP positive nuclei fraction (RPMI7951) [%]	cleaved PARP positive nuclei fraction (RVH-421) [%]	cleaved PARP positive nuclei fraction (SkMel28) [%]	cleaved PARP positive nuclei fraction (SkMel2) [%]	cleaved PARP positive nuclei fraction (SkMel30) [%]	cleaved PARP positive nuclei fraction (SkMel5) [%]	cleaved PARP positive nuclei fraction (UACC257) [%]	cleaved PARP positive nuclei fraction (UACC62) [%]	cleaved PARP positive nuclei fraction (WM115) [%]	cleaved PARP positive nuclei fraction (WM1716) [%]	cleaved PARP positive nuclei fraction (WM1745) [%]	cleaved PARP positive nuclei fraction (WM3526) [%]	cleaved PARP positive nuclei fraction (WM3619) [%]	cleaved PARP positive nuclei fraction (WM451Lu) [%]
Clc1ccc(Nc2nnc(Cc3ccncc3)c3ccccc23)cc1 [vatalanib] + Oc1nc(-c2ccc(C(F)(F)F)cc2)nc2c1CSCC2 [XAV939] (first compound 2 µM, partner dose 2 µM)	162	61.2	176	55.1	125	118	39.4	69.8	188	43.9	301	198	128	58.3	77.9	330
Cc1nc(Nc2ncc(C(=O)Nc3c(C)cccc3Cl)s2)cc(N2CCN(CCO)CC2)n1 [dasatanib] + Cn1cncc1[C@@](N)(c1ccc(Cl)cc1)c1ccc2c(c1)c(-c1cccc(Cl)c1)cc(=O)n2C [tipifarnib] (first compound 0.004 µM, partner dose 0.01 µM)	121	126	101	141	110	244	218	147	110	225	289	200	125	75.4	116	122
